Data source: PubChem BioAssay AID720505 (Drosophila RNAi Screening Center, 2013)
The deposit covers about 20,000 reagents; below is a random part of those that have a named target and a result. Of all reagents, about 2,100 (10%) are marked active. 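Raw plate signals without normalisation; calls rest on control-based scores that were not deposited; replicate 2 separates called from uncalled poorly.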 Unmarked entries are inactive. A plus sign joins genes that one reagent is predicted to hit. No sequences are given here. Not stated in the record: the amount of reagent, the time to read-out.

Test: 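Genes needed for store-operated calcium entry in fly cells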 (primary screen)
Cells: Drosophila S2R+ cells
Reagent: long dsRNA against Drosophila genes
Challenge: thapsigargin (2 µM) in calcium-free buffer to empty internal stores, then 2 mM calcium added back
Measured: 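Fluo-4 signal in 384-well plates read on a FLIPR after thapsigargin (2 µM, calcium-free) store depletion and 2 mM calcium add-back; unnormalised mean endpoint per well; screen run twice, selected wells retested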
Scale: calcium signal and retest calcium signal: higher = more calcium entry after store depletion
Active means: 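About 1500 genes called as lowering calcium entry, by varying amounts, judged against per-plate control wells with STIM1 as positive and Rho1 as negative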
Calls: active = called as lowering calcium entry; inactive = not called

no.	target gene	amplicon	calcium signal, replicate 1	calcium signal, replicate 2	retest calcium signal, replicate 1	retest calcium signal, replicate 2
1	r-cup (GeneID 33075)	DRSC20475	242	107		
2	Csk (GeneID 41398)	DRSC15223	108	95.1		
3	Csk (GeneID 41398)	DRSC23272	119	135		
4	ALiX (GeneID 43330)	DRSC14564	124	91.6		
5	CG17186 (GeneID 42363)	DRSC15180	168	143		
6	CG3437 (GeneID 39096)	DRSC10366	113	122		
7	mth (GeneID 38058)	DRSC08725	154	90.5		
8	CG9259 (GeneID 35372)	DRSC03174	70.5	136		
9	Trap1 (GeneID 35559)	DRSC05019	152	102		
10	Cyt-c1 (GeneID 38612)	DRSC10447	68.9 (active)	130		
11	CG10298 (GeneID 40779)	DRSC12522	113	144		
12	CG17230 (GeneID 41376)	DRSC15203	93	109		
13	GlcAT-P (GeneID 39262)	DRSC10603	88.3	134		
14	GlcAT-P (GeneID 39262)	DRSC10604	83.5	90.2		
15	alien (GeneID 34225)	DRSC03482	63.9 (active)	70.4		
16	CG6873 (GeneID 32861)	DRSC20014	74.2 (active)	50.1		
17	alpha-Est6 (GeneID 40902)	DRSC12618	91.7	103		
18	GstD11 (GeneID 41512)	DRSC15251	188	178		
19	Jhbp3 (GeneID 40611)	DRSC12247	107	112		
20	snky (GeneID 39492)	DRSC09838	98.8	78.4		
21	Naglu (GeneID 46386)	DRSC02267	137	287		
22	ninaD (GeneID 326160)	DRSC02886	109	102		
23	Liprin-alpha (GeneID 249072)	DRSC02132	114	142		
24	SppL (GeneID 43128)	DRSC15228	297	145		
25	CG3650 (GeneID 37974)	DRSC04401	148	165		
26	Myo31DF (GeneID 34445)	DRSC03376	85.1	113		
27	Myo31DF (GeneID 34445)	DRSC22702	97.1	179		
28	upSET (GeneID 39551)	DRSC11051	61.9 (active)	99.5		
29	upSET (GeneID 39551)	DRSC23289	134	114		
30	Orc5 (GeneID 34794)	DRSC03390	122	106		
31	CheA87a (GeneID 41642)	DRSC14839	130	219		
32	CG13299 (GeneID 38724)	DRSC09973	117	92.1		
33	CG15739 (GeneID 32146)	DRSC19705	124	95.6		
34	Orai (GeneID 37040)	DRSC05684	109	106		
35	Orai (GeneID 37040)	DRSC22061	35.3 (active)	23.3		
36	Send1 (GeneID 33407)	DRSC00482	151	168		
37	arm (GeneID 31151)	DRSC18738	88.7	106		
38	H2.0 (GeneID 33841)	DRSC03340	200	111	125	106
39	H2.0 (GeneID 33841)	DRSC22555	89.3	154		
40	GstE6 (GeneID 37111)	DRSC06676	168	184		
41	Pgant4 (GeneID 261610)	DRSC00717	166	114		
42	CG7382 (GeneID 33772)	DRSC03052	146	166		
43	CG33523 (GeneID 38668)	DRSC09814	97.7	78.2		
44	CG33523 (GeneID 38668)	DRSC22155	83.6	225		
45	Toll-7 (GeneID 37272)	DRSC07563	144	156	85.2	95.8
46	alphaTub84B (GeneID 40848)	DRSC12622	115 (active)	79.1		
47	CG6465 (GeneID 41274)	DRSC16046	101	158		
48	Rexo5 (GeneID 38740)	DRSC10981	98.4	79.7		
49	CG32473 (GeneID 41636)	DRSC14352	153	231		
50	CG32473 (GeneID 41636)	DRSC16446	116	88.8		
51	sstn (GeneID 39643)	DRSC10753	93	155		
52	tkv + CR14033 + tRNA:Asp-GTC-2-1 + 1 more	DRSC00861	81.5	143	7290	120
53	CG5860 (GeneID 42095)	DRSC15896	132	177		
54	CG17065 (GeneID 33026)	DRSC20544	112	115		
55	CG33301 (GeneID 2768917)	DRSC02778	78.9 (active)	92.1		
56	CG15443 (GeneID 33656)	DRSC00455	131	100		
57	Su(var)2-10 (GeneID 35927)	DRSC07721	189	147		
58	MtnD (GeneID 326270)	DRSC22733	124	212		
59	ppk18 (GeneID 34295)	DRSC02216	169	158		
60	ppk18 (GeneID 34295)	DRSC02217	146	125		
61	corn (GeneID 38786)	DRSC11021	141	148		
62	corn (GeneID 38786)	DRSC21943	109	238		
63	sau (GeneID 33402)	DRSC00694	64.3 (active)	145		
64	gny (GeneID 34409)	DRSC02810	98.5	108		
